Laboratory results: publication PMC6639074
No constants are given. Whether binding was seen depends on the method and setting. In cells and extracts the contact can be indirect. Here binding means that the protein was enriched with, or labelled near, the bait; the list need not be complete. For some of these results: Sequences can lack the tags named with a protein. Each block holds one binder with its values, some of them ahead of it.

Protein sequences, listed by entry. Tags and fused reporters are not part of them. Lines headed by an entry give the natural chain unless they say otherwise; changes in a name come on top. Chains listed by the source or under a name are the forms on record and can include a tag or linker.
Rab5A(Q79L)-BirA*-HA-MAO (P20339, form named): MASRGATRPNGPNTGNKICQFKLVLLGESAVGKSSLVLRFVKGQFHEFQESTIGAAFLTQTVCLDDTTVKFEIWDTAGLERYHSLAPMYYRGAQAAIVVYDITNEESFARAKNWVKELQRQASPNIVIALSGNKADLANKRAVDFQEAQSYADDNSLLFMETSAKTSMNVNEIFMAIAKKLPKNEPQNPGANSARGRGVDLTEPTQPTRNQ
Rab5A(S34N)-BirA*-HA-MAO (P20339, form named): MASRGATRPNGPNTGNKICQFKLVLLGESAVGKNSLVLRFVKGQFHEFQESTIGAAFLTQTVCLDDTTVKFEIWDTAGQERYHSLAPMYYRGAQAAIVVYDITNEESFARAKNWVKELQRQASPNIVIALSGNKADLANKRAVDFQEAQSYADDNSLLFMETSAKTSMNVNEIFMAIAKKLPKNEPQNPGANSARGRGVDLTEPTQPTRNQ
UniProt P61026: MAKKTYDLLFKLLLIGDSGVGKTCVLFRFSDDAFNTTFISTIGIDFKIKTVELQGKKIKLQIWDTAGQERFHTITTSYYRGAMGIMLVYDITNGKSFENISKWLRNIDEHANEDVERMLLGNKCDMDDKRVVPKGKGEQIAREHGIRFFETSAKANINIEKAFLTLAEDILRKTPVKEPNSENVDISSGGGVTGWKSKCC
UniProt Q9NP72: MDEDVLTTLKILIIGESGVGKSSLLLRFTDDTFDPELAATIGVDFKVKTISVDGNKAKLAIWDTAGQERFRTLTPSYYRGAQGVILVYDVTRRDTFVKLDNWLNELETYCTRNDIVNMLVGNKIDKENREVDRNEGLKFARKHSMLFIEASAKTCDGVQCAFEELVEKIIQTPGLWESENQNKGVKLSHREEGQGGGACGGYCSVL

What was measured:
Assay in all cases: proximity labelling; MitoID: GTPase-BirA*-HA-MAO chimera on mitochondria of transiently transfected HEK293T cells, 50 uM biotin 18 h, streptavidin beads, mass spectrometry, biological triplicates; hits by WD scores and volcano plots against the GDP-locked forms
[1] = target: Rab5A(Q79L)-BirA*-HA-MAO (human) (UniProt P20339)
[2] = target: Rab5A(S34N)-BirA*-HA-MAO (human) (UniProt P20339)
[3] = target: T1, Rab9A(Q66L)-BirA*-HA-MAO (human) (UniProt P51151)
T1 sequence: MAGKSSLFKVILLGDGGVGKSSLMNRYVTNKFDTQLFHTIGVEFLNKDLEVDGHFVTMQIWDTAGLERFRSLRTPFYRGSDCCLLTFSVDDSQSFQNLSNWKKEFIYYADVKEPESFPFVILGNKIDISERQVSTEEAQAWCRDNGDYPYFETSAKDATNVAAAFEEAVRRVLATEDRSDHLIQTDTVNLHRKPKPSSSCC

[4] = target: Rab10(Q68L)-BirA*-HA-MAO (human) (UniProt P61026)
[5] = target: Rab18(Q67L)-BirA*-HA-MAO (human) (UniProt Q9NP72)

B3: KIF3B (protein, UniProt O15066 1-747)
chain: MSKLKSSESVRVVVRCRPMNGKEKAASYDKVVDVDVKLGQVSVKNPKGTAHEMPKTFTFDAVYDWNAKQFELYDETFRPLVDSVLQGFNGTIFAYGQTGTGKTYTMEGIRGDPEKRGVIPNSFDHIFTHISRSQNQQYLVRASYLEIYQEEIRDLLSKDQTKRLELKERPDTGVYVKDLSSFVTKSVKEIEHVMNVGNQNRSVGATNMNEHSSRSHAIFVITIECSEVGLDGENHIRVGKLNLVDLAGSERQAKTGAQGERLKEATKINLSLSALGNVISALVDGKSTHIPYRDSKLTRLLQDSLGGNAKTVMVANVGPASYNVEETLTTLRYANRAKNIKNKPRVNEDPKDALLREFQEEIARLKAQLEKRSIGRRKRREKRREGGGSGGGGEEEEEEGEEGEEEGDDKDDYWREQQEKLEIEKRAIVEDHSLVAEEKMRLLKEKEKKMEDLRREKDAAEMLGAKIKAMESKLLVGGKNIVDHTNEQQKILEQKRQEIAEQKRREREIQQQMESRDEETLELKETYSSLQQEVDIKTKKLKKLFSKLQAVKAEIHDLQEEHIKERQELEQTQNELTRELKLKHLIIENFIPLEEKSKIMNRAFFDEEEDHWKLHPITRLENQQMMKRPVSAVGYKRPLSQHARMSMMIRPEARYRAENIVLLELDMPSRTTRDYEGPAIAPKVQAALDAALQDEDEIQVDASSFESTANKKSKARPKSGRKSGSSSSSSGTPASQLYPQSRGLVPK
- binding [4]: binds

B4: HPS3 (protein, UniProt Q969F9 1-1004)
chain: MVQLYNLHPFGSQQVVPCKLEPDRFCGGGRDALFVAAGCKVEAFAVAGQELCQPRCAFSTLGRVLRLAYSEAGDYLVAIEEKNKATFLRAYVNWRNKRTENSRVCIRMIGHNVEGPFSKAFRDQMYIIEMPLSEAPLCISCCPVKGDLLVGCTNKLVLFSLKYQIINEEFSLLDFERSLIIHIDNITPVEVSFCVGYVAVMSDLEVLIVKLESGPKNGERVHHHPHKTNNRIRRTEEGISNEISQLESDDFVICQKPLELLGEKSEQSGLSVTLESTGLADEKRKYSHFQHLLYRRFAPDISSYVLSDDIKLHSLQLLPIYQTGSLTSDGKNLSQEKELLSLFCFFSLPHVGYLYMVVKSVELMSVYQYPEKSQQAVLTPQFLHVITSNNLQCFTVRCSAAAAREEDPYMDTTLKACPPVSMDVCALRIQLFIGLKAICHFKNHIILLTKAEPEAIPERRQSPKRLLSRKDTSVKIKIPPVAEAGWNLYIVNTISPVQLYKEMVDYSNTYKTVKTQSCIHLLSEAHLLVRAALMDASQLEPGEKAELLEAFKESCGHLGDCYSRLDSQHSHLTLPYYKMSGLSMAEVLARTDWTVEDGLQKYERGLIFYINHSLYENLDEELNEELAAKVVQMFYVAEPKQVPHILCSPSMKNINPLTAMSYLRKLDTSGFSSILVTLTKAAVALKMGDLDMHRNEMKSHSEMKLVCGFILEPRLLIQQRKGQIVPTELALHLKETQPGLLVASVLGLQKNNKIGIEEADSFFKVLCAKDEDTIPQLLVDFWEAQLVACLPDVVLQELFFKLTSQYIWRLSKRQPPDTTPLRTSEDLINACSHYGLIYPWVHVVISSDSLADKNYTEDLSKLQSLICGPSFDIASIIPFLEPLSEDTIAGLSVHVLCRTRLKEYEQCIDILLERCPEAVIPYANHELKEENRTLWWKKLLPELCQRIKCGGEKYQLYLSSLKETLSIVAVELELKDFMNVLPEDGTATFFLPYLLYCSRKKPLT
- binding [3]: binds

B5: ZW10 (protein, UniProt O43264 1-779)
chain: MASFVTEVLAHSGRLEKEDLGTRISRLTRRVEEIKGEVCNMISKKYSEFLPSMQSAQGLITQVDKLSEDIDLLKSRIESEVRRDLHVSTGEFTDLKQQLERDSVVLSLLKQLQEFSTAIEEYNCALTEKKYVTGAQRLEEAQKCLKLLKSRKCFDLKILKSLSMELTIQKQNILYHLGEEWQKLIVWKFPPSKDTSSLESYLQTELHLYTEQSHKEEKTPMPPISSVLLAFSVLGELHSKLKSFGQMLLKYILRPLASCPSLHAVIESQPNIVIIRFESIMTNLEYPSPSEVFTKIRLVLEVLQKQLLDLPLDTDLENEKTSTVPLAEMLGDMIWEDLSECLIKNCLVYSIPTNSSKLQQYEEIIQSTEEFENALKEMRFLKGDTTDLLKYARNINSHFANKKCQDVIVAARNLMTSEIHNTVKIIPDSKINVPELPTPDEDNKLEVQKVSNTQYHEVMNLEPENTLDQHSFSLPTCRISESVKKLMELAYQTLLEATTSSDQCAVQLFYSVRNIFHLFHDVVPTYHKENLQKLPQLAAIHHNNCMYIAHHLLTLGHQFRLRLAPILCDGTATFVDLVPGFRRLGTECFLAQMRAQKGELLERLSSARNFSNMDDEENYSAASKAVRQVLHQLKRLGIVWQDVLPVNIYCKAMGTLLNTAISEVIGKITALEDISTEDGDRLYSLCKTVMDEGPQVFAPLSEESKNKKYQEEVPVYVPKWMPFKELMMMLQASLQEIGDRWADGKGPLAAAFSSSEVKALIRALFQNTERRAAALAKIK
- binding [5]: binds

B6: NDE1/NudE (protein, UniProt Q9NXR1 1-335)
chain: MEDSGKTFSSEEEEANYWKDLAMTYKQRAENTQEELREFQEGSREYEAELETQLQQIETRNRDLLSENNRLRMELETIKEKFEVQHSEGYRQISALEDDLAQTKAIKDQLQKYIRELEQANDDLERAKRATIMSLEDFEQRLNQAIERNAFLESELDEKENLLESVQRLKDEARDLRQELAVQQKQEKPRTPMPSSVEAERTDTAVQATGSVPSTPIAHRGPSSSLNTPGSFRRGLDDSTGGTPLTPAARISALNIVGDLLRKVGALESKLASCRNLVYDQSPNRTGGPASGRSSKNRDGGERRPSSTSVPLGDKGLDTSCRWLSKSTTRSSSSC
- binding [3]: binds

Further lines, results first:

- binding [1]: binds
- binding [2]: binds
B1: SPAG9 (protein, UniProt O60271 1-1321)
chain: MELEDGVVYQEEPGGSGAVMSERVSGLAGSIYREFERLIGRYDEEVVKELMPLVVAVLENLDSVFAQDQEHQVELELLRDDNEQLITQYEREKALRKHAEEKFIEFEDSQEQEKKDLQTRVESLESQTRQLELKAKNYADQISRLEEREAELKKEYNALHQRHTEMIHNYMEHLERTKLHQLSGSDQLESTAHSRIRKERPISLGIFPLPAGDGLLTPDAQKGGETPGSEQWKFQELSQPRSHTSLKVSNSPEPQKAVEQEDELSDVSQGGSKATTPASTANSDVATIPTDTPLKEENEGFVKVTDAPNKSEISKHIEVQVAQETRNVSTGSAENEEKSEVQAIIESTPELDMDKDLSGYKGSSTPTKGIENKAFDRNTESLFEELSSAGSGLIGDVDEGADLLGMGREVENLILENTQLLETKNALNIVKNDLIAKVDELTCEKDVLQGELEAVKQAKLKLEEKNRELEEELRKARAEAEDARQKAKDDDDSDIPTAQRKRFTRVEMARVLMERNQYKERLMELQEAVRWTEMIRASRENPAMQEKKRSSIWQFFSRLFSSSSNTTKKPEPPVNLKYNAPTSHVTPSVKKRSSTLSQLPGDKSKAFDFLSEETEASLASRREQKREQYRQVKAHVQKEDGRVQAFGWSLPQKYKQVTNGQGENKMKNLPVPVYLRPLDEKDTSMKLWCAVGVNLSGGKTRDGGSVVGASVFYKDVAGLDTEGSKQRSASQSSLDKLDQELKEQQKELKNQEELSSLVWICTSTHSATKVLIIDAVQPGNILDSFTVCNSHVLCIASVPGARETDYPAGEDLSESGQVDKASLCGSMTSNSSAETDSLLGGITVVGCSAEGVTGAATSPSTNGASPVMDKPPEMEAENSEVDENVPTAEEATEATEGNAGSAEDTVDISQTGVYTEHVFTDPLGVQIPEDLSPVYQSSNDSDAYKDQISVLPNEQDLVREEAQKMSSLLPTMWLGAQNGCLYVHSSVAQWRKCLHSIKLKDSILSIVHVKGIVLVALADGTLAIFHRGVDGQWDLSNYHLLDLGRPHHSIRCMTVVHDKVWCGYRNKIYVVQPKAMKIEKSFDAHPRKESQVRQLAWVGDGVWVSIRLDSTLRLYHAHTYQHLQDVDIEPYVSKMLGTGKLGFSFVRITALMVSCNRLWVGTGNGVIISIPLTETNKTSGVPGNRPGSVIRVYGDENSDKVTPGTFIPYCSMAHAQLCFHGHRDAVKFFVAVPGQVISPQSSSSGTDLTGDKAGPSAQEPGSQTPLKSMLVISGGEGYIDFRMGDEGGESELLGEDLPLEPSVTKAERSHLIVWQVMYGNE

- binding [3]: binds
B2: GRIPAP1/GRASP-1 (protein, UniProt Q4V328 1-841)
chain: MAQALSEEEFQRMQAQLLELRTNNYQLSDELRKNGVELTSLRQKVAYLDKEFSKAQKALSKSKKAQEVEVLLSENEMLQAKLHSQEEDFRLQNSTLMAEFSKLCSQMEQLEQENQQLKEGAAGAGVAQAGPLVDGELLRLQAENTALQKNVAALQERYGKEAGKFSAVSEGQGDPPGGLAPTVLAPMPLAEVELKWEMEKEEKRLLWEQLQGLESSKQAETSRLQEELAKLSEKLKKKQESFCRLQTEKETLFNDSRNKIEELQQRKEADHKAQLARTQKLQQELEAANQSLAELRDQRQGERLEHAAALRALQDQVSIQSADAQEQVEGLLAENNALRTSLAALEQIQTAKTQELNMLREQTTGLAAELQQQQAEYEDLMGQKDDLNSQLQESLRANSRLLEQLQEIGQEKEQLTQELQEARKSAEKRKAMLDELAMETLQEKSQHKEELGAVRLRHEKEVLGVRARYERELRELHEDKKRQEEELRGQIREEKARTRELETLQQTVEELQAQVHSMDGAKGWFERRLKEAEESLQQQQQEQEEALKQCREQHAAELKGKEEELQDVRDQLEQAQEERDCHLKTISSLKQEVKDTVDGQRILEKKGSAALKDLKRQLHLERKRADKLQERLQDILTNSKSRSGLEELVLSEMNSPSRTQTGDSSSISSFSYREILREKESSAVPARSLSSSPQAQPPRPAELSDEEVAELFQRLAETQQEKWMLEEKVKHLEVSSASMAEDLCRKSAIIETYVMDSRIDVSVAAGHTDRSGLGSVLRDLVKPGDENLREMNKKLQNMLEEQLTKNMHLHKDMEVLSQEIVRLSKECVGPPDPDLEPGETS
